# Source: PubChem BioAssay AID1347076 (National Center for Advancing Translational Sciences (NCATS), 2019)
# “And” between values parts separate entries of the source, which are not always exact repeats. Equal values may be shown once. The whole screen tested about 400,000 compounds, of which about 13,000 (3.2%) were called active. Inconclusive means that the source gave no clear call. Such entries were picked first, then a sample of the others. The call rests on the fitted dose curve; in most records, active means well fitted cell-killing curve with a large enough effect; inconclusive means small, poorly fitted or top-dose-only effect, or effect the other way; inactive means flat fitted curve, though single readings scatter. Potencies of inconclusive entries are doubtful fits and often do not repeat.
# Assay: qHTS assay for MDR1-selective chemotherapeutics: Primary screen using the drug-selected MDR subline cells KB-V1; further: nearly all actives have a fitted effect of over 60% in size
# Conditions: KB-V1 MDR cells viability, CellTiter-Glo, 72 h; series mostly up to 46.1 µM
# Summary of the method: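 In this primary screen, KB-V1 cells overexpressing P-gp are incubated with library compounds (lowest to highest concentration) for 72 h at 37 degrees C before a luminescent ATP viability read.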
# Potency means the concentration at half of the fitted maximal effect.
row,SMILES,Potency
1,O=C(CSc1ccc2ccccc2n1)NC1CC1,inactive
2,COc1ccc(NC(=O)c2cc(S(=O)(=O)N3CCCC3)c[nH]2)cc1,"inconclusive: 29.1 µM [rising, partial curve, poor fit]"
3,NC(=O)c1c(NC(=O)CSc2nnc(-c3ccccc3)n2CC2CCCO2)sc2c1CCC2 (stereo not drawn),"inconclusive: 16.4 µM [cytotoxic, partial curve, poor fit]"
4,COc1ccc(-c2csc(N(CCCN(C)C)C(=O)c3ccc(C(C)(C)C)cc3)n2)cc1,"inconclusive: 5.17 µM [cytotoxic, partial curve, poor fit]"
5,Cc1ccc(NC(=O)c2ccc(Cn3cc([N+](=O)[O-])cn3)cc2)c(C)c1,"inconclusive: 16.4 µM [cytotoxic, partial curve]"
6,CC/C=C1/N=C2C(=O)N(C)C(=O)N=C2N(C)N1,inactive
7,Nc1nc(Nc2ccccc2F)nc(NCc2ccccc2)c1[N+](=O)[O-],"inconclusive: 29.1 µM [cytotoxic, single point]"
8,CCCCNc1nc2c(c(=O)n(Cc3ccc(Cl)c(Cl)c3)c(=O)n2C)n1C,"inconclusive: 29.1 µM [cytotoxic, single point]"
9,CCNC(=O)C1CCCN(C(=O)c2ccc(F)c(Cl)c2)CC1 (stereo not drawn),inactive
10,COc1cc(CN2CCN(c3ccccc3C)CC2)cc([N+](=O)[O-])c1O,"inconclusive: 16.4 µM [cytotoxic, single point]"
11,Cc1c(C(=O)NCc2ccccn2)oc2c(Cl)cccc12,active: 8.2 µM
12,CCc1ccc(NC(=O)CCNS(=O)(=O)c2ccc3c(c2)CCCC(=O)N3)cc1,inactive
13,CCOC(=O)N1CCN(C(=O)c2ccccc2N(Cc2ccccc2)S(=O)(=O)c2ccc(OC)cc2)CC1,active: 20.6 µM
14,CCOc1ccc2nc(NC(=O)CN3CCC(n4nnc5cc(F)ccc54)CC3)sc2c1,active: 20.6 µM
15,NC(=S)N/N=C/c1ccccc1OCCSc1ccc(Cl)cc1,"inconclusive: 29.1 µM [cytotoxic, single point]"
16,Cn1ncc(N=Cc2c(O)ccc3ccccc23)c1C(=O)Nc1cccc(Cl)c1,"inconclusive: 29.1 µM [cytotoxic, single point]"
17,COc1ccc(SC[C@H](Cc2ccccc2)N2CC[C@@H](C(C)(C)C)CCC2=O)cc1,"inconclusive: 7.31 µM [cytotoxic, partial curve] and inconclusive: 9.2 µM [cytotoxic, partial curve]"
18,O=C(N/N=C/C1=Cc2ccccc2OC1)c1ccncc1,inactive
19,CCOC(=O)c1scc(-c2ccccc2)c1S(=O)(=O)N1CCN(c2ccccc2OC)CC1,"inconclusive: 29.1 µM [cytotoxic, single point]"
20,O=C1c2ccccc2C(c2nnnn2Cc2ccccc2)N1Cc1ccc2c(c1)OCO2 (stereo not drawn),"inconclusive: 8.2 µM [cytotoxic, partial curve]"
21,CC(Sc1nnnn1-c1ccc(O)cc1)C(=O)NC1CCCCC1C (stereo not drawn),"inconclusive: 29.1 µM [cytotoxic, single point]"
22,CC(=O)c1cccc(NS(=O)(=O)c2ccc(N/C=C/C(=O)c3ccc(F)cc3)cc2)c1,"inconclusive: 23.1 µM [cytotoxic, single point]"

row,SMILES,Potency
1,O=C(O)c1ccc2c(c1)C(=O)N(c1cccc(-c3nc4ccccc4s3)c1)C2=O,inactive
2,O=C(CCC1N=C2c3ccccc3N=C(SCc3ccccc3Cl)N2C1=O)N1CCN(c2ccccc2)CC1 (stereo not drawn),inactive
3,CC(=O)c1ccc(O)c(CSc2nncn2C)c1,"inconclusive: 20.6 µM [rising, single point]"
4,CCOC(=O)c1c(-c2ccc(C)o2)csc1NC(=S)NC(=O)c1ccc(F)cc1,"inconclusive: 18.4 µM [cytotoxic, partial curve, poor fit]"
5,COc1cc(C(=O)NNC(=O)COc2cccc(F)c2)ccc1OCC(=O)N1CCOCC1,inactive
6,CC(C)C[C@@H](CO)N1CCN(C)CCC1=O,"inconclusive: 0.0058 µM [rising, full curve, poor fit]"
7,O=C(COC(=O)/C(=C/c1cccs1)c1cccs1)NCc1ccccc1Cl,"inconclusive: 29.1 µM [cytotoxic, single point]"
8,O=C1c2cccc3cccc(c23)N1CN1CCN(c2ccccn2)CC1,active: 5.8 µM
9,Cc1ccc2cc3c(N)[nH]nc3nc2c1,active: 18.4 µM
10,Cc1ccc(S(=O)(=O)N2[C@@H](Cc3ccccc3)CO[C@H]2CC(=O)c2ccccc2)cc1,"inconclusive: 10.3 µM [cytotoxic, partial curve]"
11,CCc1ccc(CNC(=O)C2CCCN(S(=O)(=O)N3CC(C)CC(C)C3)C2)cc1 (stereo not drawn),inactive
12,COc1ccccc1-n1cnc2cc(NS(=O)(=O)c3ccc(Br)cc3)ccc21,active: 11.6 µM
13,CN(C1CCCCC1)S(=O)(=O)c1ccc2c(c1)c(=O)c(C(=O)NCCN1CCCC1)cn2C,"inconclusive: 2.91 µM [cytotoxic, partial curve, poor fit]"
14,CCCc1cc(=O)[nH]c(SCc2nc3ccccc3s2)n1,"inconclusive: 16.4 µM [cytotoxic, single point]"
15,Cc1ccc(C)c(NC(=O)CSc2ncc3c(n2)-c2cc(Cl)ccc2N(Cc2ccccc2F)S3(=O)=O)c1,inactive
16,COc1ccc(S(=O)(=O)N2CCOCC2)cc1,"inconclusive: 29.1 µM [rising, single point]"
17,COC(=O)c1sc(S(=O)(=O)Nc2c(C)nn(C)c2C)c(C(=O)OC)c1C,"inconclusive: 8.2 µM [rising, partial curve]"
18,O=C(Nc1ccnn1C1CCN(CCCc2ccccc2)CC1)c1cccc(F)c1,"inconclusive: 8.2 µM [cytotoxic, partial curve, poor fit]"
19,CCCCCC(=O)NNC1=NCC(Cc2cccc(Cl)c2)S1 (stereo not drawn),"inconclusive: 29.1 µM [cytotoxic, single point]"
20,Cc1cc2c(ccc3[nH]onc32)n1,inactive
21,CC(C)C(NC(=O)C12CC3CC(CC(C3)C1)C2)C(=O)N/N=C/C1=C(N2CCOCC2)C(=C\c2ccc([N+](=O)[O-])cc2)/CC1 (stereo not drawn),"inconclusive: 18.4 µM [rising, single point]"

# Molecules above that have a tert-butyl group (2):
row,SMILES,Potency
4,COc1ccc(-c2csc(N(CCCN(C)C)C(=O)c3ccc(C(C)(C)C)cc3)n2)cc1,"inconclusive: 5.17 µM [cytotoxic, partial curve, poor fit]"
17,COc1ccc(SC[C@H](Cc2ccccc2)N2CC[C@@H](C(C)(C)C)CCC2=O)cc1,"inconclusive: 7.31 µM [cytotoxic, partial curve] and inconclusive: 9.2 µM [cytotoxic, partial curve]"
